Experimental data: patent publication US20170226541A1, “METHOD OF IMPROVING SOLVENT TOLERANCE IN MICROBES” (Nanyang Technological University, priority 2014, published 2017)
Some results were stated once for a whole list of compounds, not compound by compound. At least one compound was matched to its structure with a doubt left.

These molecules were tested on E. coli K12 (assay: Toxicity tests (minimum inhibitory concentration)).
Type: cell-based, Escherichia coli K12
From the text: Relative toxicities of DSSN+ and DSBN+ are positively correlated with the extent of mismatch between the length of the hydrophobic molecular backbone and bilayer thickness. Membrane insertion of the shorter, 3-ringed DSBN+ thinned the membrane more than the 4-ringed DSSN+, perturbing it to a greater extent, and was correspondingly more toxic. In this example, the objective is to mitigate the toxic effect of organic solvents on biological membranes. To avoid synergistic membrane disruption in systems containing both MIMs and solvents, MIMs that were the least likely to perturb membranes, that is, DSSN+×(which was previously shown to maintain the natural thickness of membranes) and COE1-5C, were selected. The insertion of COE1-5C, whose molecular length (≈5 nm) is greater than the thickness of the bilayer (≈4 nm), would be expected to initiate membrane perturbation because of hydrophobic mismatch. However, positive hydrophobic mismatch perturbs lipid bilayers less than instances of negative mismatch—where the length of the insertion molecules is shorter than the thickness of the bilayer. The experimental concentration of COE1-5C used in this study (10 μM) is much lower than its minimum inhibitory concentration (MIC). […] This is considerably greater than for DSSN+, DSBN+ and 4F-DSBN+, further supporting the hypothesis that membrane thinning is a potent toxicity determinant. COE1-5C is encouraging as a candidate to mitigate membrane destabilization by organic solvents due to its low intrinsic toxicity and greater ability to impart rigidity to the lipid bilayer than other OPV COEs (FIG. 4).

`C[N+](C)(C)CCCCCCN(CCCCCC[N+](C)(C)C)c1ccc(/C=C/c2ccc(/C=C/c3ccc(/C=C/c4ccc(N(CCCCCC[N+](C)(C)C)CCCCCC[N+](C)(C)C)cc4)cc3)cc2)cc1.[I-].[I-].[I-].[I-]` [DSSN+, reference compound] was tested. Which “minimum inhibitory concentration (MIC)” value did it give?
The value was < 128 µmol/L.

With `C[N+](C)(C)CCCCCCN(CCCCCC[N+](C)(C)C)c1ccc(/C=C/c2c(F)c(F)c(/C=C/c3ccc(N(CCCCCC[N+](C)(C)C)CCCCCC[N+](C)(C)C)cc3)c(F)c2F)cc1.[I-].[I-].[I-].[I-]` [4F-DSBN+, reference compound] as the molecule, how does the “minimum inhibitory concentration (MIC)” value read?
Its value is < 128 µmol/L.

For `C[N+](C)(C)CCCCCCN(CCCCCC[N+](C)(C)C)c1ccc(/C=C/c2ccc(/C=C/c3ccc(N(CCCCCC[N+](C)(C)C)CCCCCC[N+](C)(C)C)cc3)cc2)cc1.[I-].[I-].[I-].[I-]` [DSBN+, reference compound], which “minimum inhibitory concentration (MIC)” value is on record?
The value was < 128 µmol/L.
